These are yes or no findings as the source states them, for the method shown. In cells and extracts the contact can be indirect. A yes stands for co-enrichment or nearness to the bait. Other partners may have been found.
B1: RacGAP1 (protein, UniProt Q9WVM1 1-628)
chain: MDTTMVNLWTLFEQLVRRMEIINEGNESIEFIQVVKDFEDFRKKYQRTNQELEKFKDLLLKAETGRSALDVKLKHARNQVDVEIKRRQRAEAECAKLEQQIQLIRDILMCDTSGSIQLSEEQKSALAFLNRGQASSGHAGNNRLSTIDESGSILSDISFDKTDESLDWDSSLVKNFKMKKREKRRSNSRQFIDGPPGPVKKTCSIGSTVDQANESIVAKTTVTVPSDGGPIEAVSTIETLPSWTRSRGKSGPLQPVNSDSALNSRPLEPRTDTDNLGTPQNTGGMRLHDFVSKTVIKPESCVPCGKRIKFGKLSLKCRDCRLVSHPECRDRCPLPCIPPLVGTPVKIGEGMLADFVSQASPMIPAIVVSCVNEIEQRGLTEAGLYRISGCDRTVKELKEKFLKVKTVPLLSKVDDIHVICSLLKDFLRNLKEPLLTFWLSKAFMEAAEITDEDNSTAAMYQAVSELPQANRDTLAFLMIHLQRVSQSPDTKMDIANLAKVFGPTIVAHTVPNPDPVTMFQDIKRQLKVVERLLSLPLEYWNQFMMVDQENIDSQRGNGNSTPRTPDVKVSLLGPVTTPEFQLVKTPLSSSLSQRLYNLSKSTPRFGNKSKSATNLGQQGKFFPAPYLK
B2: caveolae-associated protein-1 (protein, UniProt O54724 1-392)
chain: MEDVTLHIVERPYSGFPDASSEGPEPTQGEARATEEPSGTGSDELIKSDQVNGVLVLSLLDKIIGAVDQIQLTQAQLEERQAEMEGAVQSIQGELSKLGKAHATTSNTVSKLLEKVRKVSVNVKTVRGSLERQAGQIKKLEVNEAELLRRRNFKVMIYQDEVKLPAKLSVSKSLKESEALPEKEGDELGEGERPEDDTAAIELSSDEAVEVEEVIEESRAERIKRSGLRRVDDFKKAFSKEKMEKTKVRTRENLEKTRLKTKENLEKTRHTLEKRMNKLGTRLVPVERREKLKTSRDKLRKSFTPDHVVYARSKTAVYKVPPFTFHVKKIREGEVEVLKATEMVEVGPEDDEVGAERGEATDLLRGSSPDVHTLLEITEESDAVLVDKSDSD
B3: neuropilin 2 (receptor, UniProt O35375 21-931)
chain: RSQQDPPCGGRLNSKDAGYITSPGYPQDYPSHQNCEWIVYAPEPNQKIVLNFNPHFEIEKHDCKYDFIEIRDGDSESADLLGKHCGNIAPPTIISSGSVLYIKFTSDYARQGAGFSLRYEIFKTGSEDCSKNFTSPNGTIESPGFPEKYPHNLDCTFTILAKPRMEIILQFLTFDLEHDPLQVGEGDCKYDWLDIWDGIPHVGPLIGKYCGTKTPSKLRSSTGILSLTFHTDMAVAKDGFSARYYLIHQEPPENFQCNVPLGMESGRIANEQISASSTFSDGRWTPQQSRLHGDDNGWTPNLDSNKEYLQVDLRFLTMLTAIATQGAISRETQKGYYVKSYKLEVSTNGEDWMVYRHGKNHKIFQANNDATEVVLNKLHMPLLTRFIRIRPQTWHLGIALRLELFGCRVTDAPCSNMLGMLSGLIADTQISASSTREYLWSPSAARLVSSRSGWFPRNPQAQPGEEWLQVDLGTPKTVKGVIIQGARGGDSITAVEARAFVRKFKVSYSLNGKDWEYIQDPRTQQTKLFEGNMHYDTPDIRRFDPVPAQYVRVYPERWSPAGIGMRLEVLGCDWTDSKPTVETLGPTVKSEETTTPYPMDEDATECGENCSFEDDKDLQLPSGFNCNFDFPEETCGWVYDHAKWLRSTWISSANPNDRTFPDDKNFLKLQSDGRREGQYGRLISPPVHLPRSPVCMEFQYQAMGGHGVALQVVREASQESKLLWVIREDQGSEWKHGRIILPSYDMEYQIVFEGVIGKGRSGEISIDDIRISTDVPLENCMEPISAFAGEDFKVDIPETHGGEGYEDEIDDEYEGDWSNSSSSTSGAGDPSSGKEKSWLYTLDPILITIIAMSSLGVLLGATCAGLLLYCTCSYSGLSSRSCTTLENYNFELYDGLKHKVKINHQKCCSEA

What follows are binders tested against α5 integrin (mouse (endogenous in mouse lung microvascular ECs)) (assay: affinity purification with mass spectrometry; endogenous α5 integrin immunoprecipitated (Dynabeads Protein G with anti-α5 integrin antibody, 4 °C) from mouse microvascular EC lysates: WT/Ctrl, and siNRP1, siNRP2, siNRP1/2, sip120RasGAP ECs; α5.EC KO lysates as control for non-specific binding; LFQ-DIA-MS, Spectronaut, p < 0.01 cutoff; three independent experiments).

Binder | binding
B1 | binds
B2 | binds
B3 | binds
